Values quoted from earlier work as cited in patent publication US5534496A, “Methods and compositions to enhance epithelial drug transport” (University of Southern California, priority 1994, dated 1996).

Details: from Betageri and Rogers (1987); cited from earlier work

## CC(C)NCC(O)COc1ccc(CC(N)=O)cc1 (stereo not shown) [atenolol]
  distribution coefficient (DC): 1.46
